# Laboratory results: PubChem BioAssay AID1508600 (Functional Genomics Laboratory (NCATS/FGL), 2020)
# Out of some 53,000 sequences screened, about 3,700 (7%) were called active.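 The calls were made as follows: active = gene knockdowns whose robust z-score for IL-1 alpha signal is at least 2 or at most -2, so actives lie on both sides; inactive = the rest.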 Some of the results follow.
# Test: Components of the Cytosolic LPS Sensing Pathway: Gene Identification via Genome-wide siRNA Screen;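 also: robust z of the log signal after scaling to non-targeting control siRNA wells of the plate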
# Conditions: RAW264.7 macrophages, IL-1a HTRF, actives lie on both sides, screened at 100 nM (by protocol), cells primed 5 h with Pam3CSK4 first
# How it was run: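 RAW264.7; siRNA 100 nM final, RNAiMAX, 48h 37 degrees C; Pam3CSK4 5 h; LipidA + TransIT-TKO 24 h; IL-1a HTRF; CellTiter-Glo viability; robust z vs negative-control median.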
row,Sequence,z-score
1,GCAGAAGAUAGAGUAUGCATT against Myo1h,inactive: -1.06
2,GGAGCAUCUUCUAAAGUAUTT against Wdr1,inactive: -0.681
3,GCUGUUAAGGAAGGCGGACTT against Pum3,inactive: 0.839
4,GCCCUGGUCUAUUCUGACUTT against Gpr152,inactive: -0.862
5,GGACUUACGAGAAAGCGUATT against Tacr1,inactive: 0.202
6,CGACCCUCUAAGGAUAUGCTT against Zfp456,inactive: 1.01
7,CCAUUAGCCUUAAUGAUGUTT against BC048403,inactive: 0.794
8,GGAAGAAUGUAUGAACUGUTT against Col26a1,inactive: -0.811
9,CCAGUGAUUACAGAAUUACTT against A4galt,inactive: 0.0963
10,CGUCAUUUCUCAUCCUGCUTT against Olfr76,inactive: -0.216
11,CCAGUUUACGUGGAAAAAATT against Cox4i1,inactive: -0.366
12,CCUUAUAAUUGACACUGAUTT against Toe1,inactive: 0.312
13,GCGAACGAGCCUUUAAGCUTT against Fnta,inactive: -0.156
14,GGUUGGAUGCUGAAGUAGATT against Gpr137c,inactive: 0.206
15,GCUGAUGAACGAAUACAACTT against Kcnk5,inactive: 1.25
16,GGGCUUCCAUCUUUCAUCCTT against Trex2,inactive: 1.2
17,GGCCAACAUCAUUGAGGCGTT against Eif2b2,inactive: -1.17
18,GGAGAUGUUAAGCAAGAAGTT against Chmp4b,inactive: -0.865
19,CGGAAUUGACCUAUUUGCATT against Mmp25,inactive: 1.84
20,GCUUUCACUAAUCAGUACATT against Setd5,inactive: -0.0813
21,GGAGGUUGUCAAGUCUCCATT against Tnfrsf8,inactive: -1.31
22,AUGGACCAAGGAAAAGUGUTT against Olfr951,inactive: 0.308
23,GAGGAAAGAAUAGACAAGATT against Rhox6,inactive: -1.95

row,Sequence,z-score
1,GGAACAAAAACCAUUGUGATT against Gng7,inactive: -1.49
2,CCCAAAUGAUUGGAUCUGUTT against Cd40lg,inactive: 0.273
3,GGGACAUGGUCAUCACUAGTT against Clvs2,inactive: -1.71
4,GGAAAGCUUACAAAUAUGCTT against C1galt1c1,inactive: 0.457
5,GGCUGUACCAAUCUGACACTT against Pvalb,inactive: 0.318
6,GCAGAAGCGUGGCAUUGUATT against Ins2,inactive: 0.5
7,GCCAUAUAAGUGAAAAUCGTT against Gda,inactive: -0.188
8,GGAUUCUGAAGGAACUUAATT against Slc8a1,inactive: -0.283
9,GGUGGUUGUUGUCAAGGACTT against Rbm3,inactive: 0.737
10,GCAUUACGUAAGAAUGGUUTT against Eif5a,inactive: -1.43
11,GGCUACACUGGAUAUUUUUTT against F12,inactive: 0.464
12,GGAGGGUCGGCUUAUAAUUTT against Adam6b,active: 2.16
13,GCUGAUCCCUUGAGUGAAUTT against Rbm18,inactive: -1.93
14,GGAAACAGCACAACAAACGTT against Adam26a,active: 2.93
15,GGUAGACCAGCUUAAGAAGTT against Gngt1,inactive: -0.0811
16,GGGUGUUGGAGUUUGCCAUTT against Nat8l,inactive: -0.23
17,GCUUAUGAGGUGUUGAGCGTT against Dnaja3,inactive: -0.22
18,GCCAUGAUGUAGAGGUAGGTT against Zfp33b,inactive: 0.721
19,GGCCUAAAUUGACAAACUUTT against Oga,inactive: 1.04
20,GAGAAGUGUCUUGGGAAACTT against Gchfr,inactive: -0.589
21,GGAACGAACUUACAGAGAUTT against Krt27,inactive: -1.77
22,GGCAAUGCACUGCUAUUAUTT against Olfr617,inactive: 0.192
23,GCUAUUGUGUAUUUUCCAATT against Slc43a2,inactive: 1.33

row,Sequence,z-score
1,GGAGAACGUGUUCUUUCCUTT against Procr,inactive: -1.19
2,GGGACCAAAACCUGCAUUGTT against App,inactive: -0.318
3,GGAGCUGAAAAAACUGAAGTT against Pptc7,inactive: 1.66
4,GGACAUCUCCUGUCUGAAUTT against Timm50,inactive: 0.491
5,GGAGCUAAACUCCUUGAAGTT against Slc22a4,active: 2.07
6,GCAAGGAUGAAUCUAUAGATT against Pdgfrb,inactive: -0.0539
7,GGUUUUCCAAGGUGGGCAUTT against Rp1l1,inactive: 1.77
8,CCUUUUUGUGGAAGUCGUUTT against Car1,inactive: 0.0351
9,CUAGCAGGUUCAGAAUUUUTT against Olfr330,inactive: -1.55
10,GGAGGGUCUCUUUAAGUUCTT against Prkd2,inactive: 1.35
11,GGUUUUGUGAGGAGGCCAGTT against Gm10413,inactive: -1.37
12,GGUGUACCAUAGAUGAUCGTT against Opcml,inactive: -1.05
13,CCCAGAAGCCUUAUCGUCUTT against Mzt1,active: 2.37
14,GGAGGUAAACAUAACUUAUTT against Ereg,inactive: 1.41
15,GGAUUUAUGGCAAGUUUCUTT against Ppp2r5e,inactive: 0.00387
16,GGUGACCAGCUCCAUUUCUTT against Ccn5,active: 2.61
17,GGAAAUCAUCUUUUCAGAUTT against Slc7a12,inactive: -0.443
18,GGACAUAACAUACAUCUCUTT against Sdf4,inactive: 1.12
19,GGCCAAGGACAUUAUAAAUTT against Scly,inactive: -0.585
20,GGAAUCAAAUGACUAAGAATT against Mcl1,inactive: 0.129
21,GGGUAACUAUUGGACUAACTT against Gabrq,inactive: -0.262
22,GGUAUAUUGCCAUAUGUAATT against Olfr731,inactive: -0.174
23,CCAGUAUGGCUUAAAGACCTT against Bglap3,inactive: -0.84

# Three entries from above in a different format.
row	Sequence	z-score
5	GGAGCUAAACUCCUUGAAGTT against Slc22a4	active: 2.07
15	GGAUUUAUGGCAAGUUUCUTT against Ppp2r5e	inactive: 0.00387
16	GGUGACCAGCUCCAUUUCUTT against Ccn5	active: 2.61
